# This is one part of the list.
# B1: HFR-3 (Triticum aestivum) (protein)
# chain: MKGLLLCALALAFAAVTTHAQLQSCPTRCGKQADGMECPNNLCCSKDGYCGLGVDYCSAGAGCQSGACYDNKICGAQANGTLCRNNHCCSSGGRCGYGREYCSNGCQGGPCWADLKCGHLDNGKLCPNNLCCSQYGYCGLGPEFCGTGCQNGACSTDKPCGNKANGAPCTNNYCCSQYGSCGLGKDYCGTGCQNGACN
# Legend:
# Assay in all cases: glycan array binding signal (z-score within array); higher = stronger binding
# Conditions in all cases: glycan notation: IUPAC condensed, linker removed
# [1] = target: Fuc(a1-3)[GalNAc(b1-4)]GlcNAc
# Procedure, shortened: (§1)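 Arrays were curated from the Consortium for Functional Glycomics database, 3228 in total, and kept only where the protein sequence was available. Binding is expressed as a within-array Z-score. This score was averaged across arrays of the same protein sequence at different concentrations or buffers and across linkers, and negative values can be read as non-binding.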
# [2] = target: Fuc(a1-3)[GalNAc(b1-4)]GlcNAc6S
# Procedure, shortened: as §1
# Fuc(a1-4)GlcNAc = target: Fuc(a1-4)GlcNAc
# Procedure, shortened: as §1
# Fuc(b1-3)GlcNAc = target: Fuc(b1-3)GlcNAc
# Procedure, shortened: as §1
# Gal(a1-2)Gal = target: Gal(a1-2)Gal
# Procedure, shortened: as §1
# Gal(a1-3)Gal = target: Gal(a1-3)Gal
# Procedure, shortened: as §1
# Gal(a1-3)Gal(b1-3)GlcNAc = target: Gal(a1-3)Gal(b1-3)GlcNAc
# Procedure, shortened: as §1
# [3] = target: Gal(a1-3)Gal(b1-3)GlcNAc(b1-2)Man
# Procedure, shortened: as §1
# [4] = target: Gal(a1-3)Gal(b1-3)GlcNAc(b1-2)Man(a1-3)[Gal(a1-3)Gal(b1-3)GlcNAc(b1-2)Man(a1-6)]Man(b1-4)GlcNAc(b1-4)GlcNAc
# Procedure, shortened: as §1
# [5] = target: Gal(a1-3)Gal(b1-3)GlcNAc(b1-3)GalNAc
# Procedure, shortened: as §1
# [6] = target: Gal(a1-3)Gal(b1-3)GlcNAc(b1-6)GalNAc
# Procedure, shortened: as §1
# [7] = target: Gal(a1-3)Gal(b1-3)[Fuc(a1-4)]GlcNAc(b1-2)Man(a1-3)[Gal(a1-3)Gal(b1-3)[Fuc(a1-4)]GlcNAc(b1-2)Man(a1-6)]Man(b1-4)GlcNAc(b1-4)GlcNAc
# Procedure, shortened: as §1
# Gal(a1-3)Gal(b1-4)Glc = target: Gal(a1-3)Gal(b1-4)Glc
# Procedure, shortened: as §1
# Gal(a1-3)Gal(b1-4)GlcNAc = target: Gal(a1-3)Gal(b1-4)GlcNAc
# Procedure, shortened: as §1
# [8] = target: Gal(a1-3)Gal(b1-4)GlcNAc(b1-2)Man
# Procedure, shortened: as §1
# [9] = target: Gal(a1-3)Gal(b1-4)GlcNAc(b1-2)Man(a1-3)[Gal(a1-3)Gal(b1-4)GlcNAc(b1-2)Man(a1-6)]Man(b1-4)GlcNAc(b1-4)GlcNAc
# Procedure, shortened: as §1
# [10] = target: Gal(a1-3)Gal(b1-4)GlcNAc(b1-3)GalNAc
# Procedure, shortened: as §1
# [11] = target: Gal(a1-3)Gal(b1-4)GlcNAc(b1-6)GalNAc
# Procedure, shortened: as §1
# [12] = target: Gal(a1-3)Gal(b1-4)[Fuc(a1-3)]GlcNAc
# Procedure, shortened: as §1
# [13] = target: Gal(a1-3)Gal(b1-4)[Fuc(a1-3)]GlcNAc(b1-2)Man(a1-3)[Gal(a1-3)Gal(b1-4)[Fuc(a1-3)]GlcNAc(b1-2)Man(a1-6)]Man(b1-4)GlcNAc(b1-4)GlcNAc
# Procedure, shortened: as §1
# Gal(a1-3)GalNAc = target: Gal(a1-3)GalNAc
# Procedure, shortened: as §1
# [14] = target: Gal(a1-3)[Gal(a1-4)]Gal(b1-4)GlcNAc
# Procedure, shortened: as §1
# [15] = target: Gal(a1-4)Gal(b1-3)GlcNAc(b1-2)Man(a1-3)[Gal(a1-4)Gal(b1-3)GlcNAc(b1-2)Man(a1-6)]Man(b1-4)GlcNAc(b1-4)GlcNAc
# Procedure, shortened: as §1
# Gal(a1-4)Gal(b1-4)Glc = target: Gal(a1-4)Gal(b1-4)Glc
# Procedure, shortened: as §1
# Gal(a1-4)Gal(b1-4)GlcNAc = target: Gal(a1-4)Gal(b1-4)GlcNAc
# Procedure, shortened: as §1
# [16] = target: Gal(a1-4)Gal(b1-4)GlcNAc(b1-2)Man(a1-3)[Gal(a1-4)Gal(b1-4)GlcNAc(b1-2)Man(a1-6)]Man(b1-4)GlcNAc(b1-4)GlcNAc
# Procedure, shortened: as §1
# [17] = target: Gal(a1-4)Gal(b1-4)GlcNAc(b1-3)Gal(b1-4)Glc
# Procedure, shortened: as §1
# Gal(a1-4)GlcNAc = target: Gal(a1-4)GlcNAc
# Procedure, shortened: as §1
# Gal(a1-6)Glc = target: Gal(a1-6)Glc
# Procedure, shortened: as §1
# Gal(b1-2)Gal = target: Gal(b1-2)Gal
# Procedure, shortened: as §1
# Gal(b1-3)Gal = target: Gal(b1-3)Gal
# Procedure, shortened: as §1
# Gal(b1-3)Gal(b1-4)GlcNAc = target: Gal(b1-3)Gal(b1-4)GlcNAc
# Procedure, shortened: as §1
# Gal(b1-3)GalNAc = target: Gal(b1-3)GalNAc
# Procedure, shortened: as §1
# [18] = target: Gal(b1-3)GalNAc(a1-3)[Fuc(a1-2)]Gal(b1-4)Glc
# Procedure, shortened: as §1
# [19] = target: Gal(b1-3)GalNAc(a1-3)[Fuc(a1-2)]Gal(b1-4)GlcNAc
# Procedure, shortened: as §1
# Gal(b1-3)GalNAc(b1-3)Gal = target: Gal(b1-3)GalNAc(b1-3)Gal
# Procedure, shortened: as §1
# [20] = target: Gal(b1-3)GalNAc(b1-3)Gal(a1-4)Gal(b1-4)Glc
# Procedure, shortened: as §1
# [21] = target: Gal(b1-3)GalNAc(b1-4)Gal(b1-4)Glc
# Procedure, shortened: as §1
# [22] = target: Gal(b1-3)GalNAc(b1-4)[Neu5Ac(a2-3)]Gal(b1-4)Glc
# Procedure, shortened: as §1
# Gal(b1-3)GlcNAc = target: Gal(b1-3)GlcNAc
# Procedure, shortened: as §1
# [23] = target: Gal(b1-3)GlcNAc(a1-3)Gal(b1-4)GlcNAc
# Procedure, shortened: as §1
# [24] = target: Gal(b1-3)GlcNAc(a1-6)Gal(b1-4)GlcNAc
# Procedure, shortened: as §1
# Gal(b1-3)GlcNAc(b1-2)Man = target: Gal(b1-3)GlcNAc(b1-2)Man
# Procedure, shortened: as §1
# [25] = target: Gal(b1-3)GlcNAc(b1-2)Man(a1-3)[Gal(b1-3)GlcNAc(b1-2)Man(a1-6)]Man(b1-4)GlcNAc(b1-4)GlcNAc
# Procedure, shortened: as §1
# [26] = target: Gal(b1-3)GlcNAc(b1-2)Man(a1-3)[Gal(b1-3)GlcNAc(b1-2)Man(a1-6)]Man(b1-4)GlcNAc(b1-4)[Fuc(a1-6)]GlcNAc
# Procedure, shortened: as §1
binder,measurement,setting,value
B1,glycan array binding signal (z-score),[1],0.68
same,glycan array binding signal (z-score),[2],1.08
same,glycan array binding signal (z-score),Fuc(a1-4)GlcNAc,0.23
same,glycan array binding signal (z-score),Fuc(b1-3)GlcNAc,0.113
same,glycan array binding signal (z-score),Gal(a1-2)Gal,0.046
same,glycan array binding signal (z-score),Gal(a1-3)Gal,0.103
same,glycan array binding signal (z-score),Gal(a1-3)Gal(b1-3)GlcNAc,0.169
same,glycan array binding signal (z-score),[3],0.493
same,glycan array binding signal (z-score),[4],0.506
same,glycan array binding signal (z-score),[5],-1.03
same,glycan array binding signal (z-score),[6],-0.577
same,glycan array binding signal (z-score),[7],-1.67
same,glycan array binding signal (z-score),Gal(a1-3)Gal(b1-4)Glc,0.128
same,glycan array binding signal (z-score),Gal(a1-3)Gal(b1-4)GlcNAc,0.079
same,glycan array binding signal (z-score),[8],0.46
same,glycan array binding signal (z-score),[9],0.706
same,glycan array binding signal (z-score),[10],-0.42
same,glycan array binding signal (z-score),[11],0.589
same,glycan array binding signal (z-score),[12],-0.409
same,glycan array binding signal (z-score),[13],-0.792
same,glycan array binding signal (z-score),Gal(a1-3)GalNAc,2.1
same,glycan array binding signal (z-score),[14],1.2
same,glycan array binding signal (z-score),[15],0.67
same,glycan array binding signal (z-score),Gal(a1-4)Gal(b1-4)Glc,2.12
same,glycan array binding signal (z-score),Gal(a1-4)Gal(b1-4)GlcNAc,0.8
same,glycan array binding signal (z-score),[16],-0.424
same,glycan array binding signal (z-score),[17],0.114
same,glycan array binding signal (z-score),Gal(a1-4)GlcNAc,0.019
same,glycan array binding signal (z-score),Gal(a1-6)Glc,-0.354
same,glycan array binding signal (z-score),Gal(b1-2)Gal,-0.892
same,glycan array binding signal (z-score),Gal(b1-3)Gal,-0.289
same,glycan array binding signal (z-score),Gal(b1-3)Gal(b1-4)GlcNAc,-0.718
same,glycan array binding signal (z-score),Gal(b1-3)GalNAc,0.091
same,glycan array binding signal (z-score),[18],1.68
same,glycan array binding signal (z-score),[19],0.121
same,glycan array binding signal (z-score),Gal(b1-3)GalNAc(b1-3)Gal,-0.312
same,glycan array binding signal (z-score),[20],2.05
same,glycan array binding signal (z-score),[21],2.24
same,glycan array binding signal (z-score),[22],-0.997
same,glycan array binding signal (z-score),Gal(b1-3)GlcNAc,1.05
same,glycan array binding signal (z-score),[23],-0.655
same,glycan array binding signal (z-score),[24],-1.2
same,glycan array binding signal (z-score),Gal(b1-3)GlcNAc(b1-2)Man,-1.05
same,glycan array binding signal (z-score),[25],-0.694
same,glycan array binding signal (z-score),[26],0.089

# 4 entries drawn at random from the list so far, as already listed:
binder,measurement,setting,value
B1,glycan array binding signal (z-score),Gal(a1-6)Glc,-0.354
same,glycan array binding signal (z-score),[13],-0.792
same,glycan array binding signal (z-score),[7],-1.67
same,glycan array binding signal (z-score),Gal(a1-4)Gal(b1-4)GlcNAc,0.8

# Source: the supplement of paper PMC8728848
